Data taken from PubChem BioAssay AID1487 (National Center for Advancing Translational Sciences (NCATS), 2009).
“And” between values parts separate entries of the source, which are not always exact repeats. Equal entries are not always repeated. This is one part of the list. Shown are side measurements of this screen, not its main read-out; they come without a call. Most of these compounds were active or inconclusive in the main read-out, so they are no random draw. Potencies come from curve fits of mixed quality, noted in brackets.

Assay: qHTS Assay for Modulators of Lamin A Splicing
Conditions: HeLa LMNA splicing GFP/RFP minigene ratio, 48 h
Method in brief: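 S3 HeLa cells stably expressing lamin A-EGFP splicing minigene plus DsRed2, 600 cells/well, 48 h compound exposure at 37C. Laser-scanning cytometry; analysed as GFP (500-530 nm)/RFP (575-640 nm) total intensity ratio; 0.5% DMSO vehicle.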

[1] = measured here: RFP viability control channel
[2] = measured here: GFP splicing reporter channel

SMILES | AC50 [1] | AC50 [2]
COc1ccc(C/C(C)=N/NC(=S)Nc2ccc(C(C)C)cc2)cc1 | 15.8 µM [rising, single point] | –
Brc1ccc2[nH]c3c(N4CCc5ccccc5C4)ncnc3c2c1 | 3.98 µM [rising, full curve, poor fit] | –
Cc1nc(/N=C(\N)NC(=O)N2c3ccccc3Sc3ccccc32)nc2ccccc12 | 25.1 µM [rising, single point] | –
CN(C)c1ccc(NC(=O)Cn2c(SCc3ccc(F)cc3)nc3cccnc32)cc1 | 0.02 µM [falling, full curve, poor fit] | 0.0631 µM [falling, full curve, poor fit]
CC1CCCN(C(=O)C(C)Sc2nc(-c3ccccc3)cc(C(F)(F)F)n2)C1 (stereo unspecified) | 11.2 µM [rising, single point] | –
Cc1ccc(NC(=O)CSCc2nc3c(nnn3Cc3ccc(F)cc3)c(=O)[nH]2)c(C)c1 | 8.91 µM [falling, partial curve, poor fit] | –
Cc1ccc(C)n1-c1ccc(NC(=O)c2ccccc2)cc1 | 5.01 µM [falling, partial curve, poor fit] | –
Cc1oncc1C(=O)NC1CCCCC1 | 0.00447 µM [rising, full curve, poor fit] | 0.0562 µM [rising, partial curve, poor fit]
Cc1nc(-c2ccc(C)c(N3CCN(C(=O)Nc4ccc(Br)cc4)CC3)c2)no1 | – | 35.5 µM [falling, partial curve]
CCn1cc(S(=O)(=O)c2cccc(C)c2)c(=O)c2cc(F)c(N3CCCCC3C)cc21 (stereo unspecified) | 0.0355 µM [falling, full curve, poor fit] | 0.0282 µM [falling, full curve, poor fit]
O=C(NCc1ccc2c(c1)OCO2)c1cc(S(=O)(=O)N2CCCCC2)ccc1F | 14.1 µM [rising, single point] | –
COc1ccc(OCc2nn3c(Cn4cnc5ccccc54)nnc3s2)cc1 | 15.8 µM [rising, partial curve] | 12.6 µM [rising, single point]
COc1cccc(CN(Cc2ccco2)C(c2ccc(F)cc2)c2nnnn2C(C)(C)C)c1 (stereo unspecified) | 11.2 µM [rising, partial curve] | –
COc1c([N+](=O)[O-])c(=O)n(-c2ccccc2)c2ccccc12 | 17.8 µM [rising, single point] | 14.1 µM [rising, single point]
COc1ccc(N(CC(=O)NCc2ccc(C)cc2)S(=O)(=O)c2ccccc2[N+](=O)[O-])c(OC)c1 | 22.4 µM [falling, single point] | 35.5 µM [falling, single point]
Cc1cc2ncn(C(=O)N3CCCCCC3)c2cc1C | 7.94 µM [rising, partial curve, poor fit] | –
CCn1c(SCC(=O)NCCOC)nc2sc3c(c2c1=O)CCCC3 | – | 31.6 µM [rising, single point]
O=C(c1ccco1)N(CCC(c1ccccc1)c1ccco1)Cc1ccco1 (stereo unspecified) | 35.5 µM [falling, partial curve, poor fit] | –
O=C(Nc1sc2c(c1C(=O)O)CCC2)c1ccccc1 | 11.2 µM [rising, single point] | –
NC(N)=NCc1cccc(I)c1 | – | 0.00447 µM [falling, partial curve, poor fit]
CCCCCc1ccc(CC(=O)Nn2c(C)nc3ccccc3c2=O)cc1 | 8.91 µM [rising, partial curve] | –
COc1ccccc1N1CCN(C(=O)C2CCN(S(=O)(=O)c3ccc(C)cc3)CC2)CC1 | 0.178 µM [falling, full curve, poor fit] | –
Cc1ccc(-n2cccn2)c(CN2CCCC(CNC(=O)c3ccc(F)cc3)C2)c1 (stereo unspecified) | – | 28.2 µM [falling, single point]
CC(NC(=O)Nc1ccccc1O)(C(F)(F)F)C(F)(F)F | 11.2 µM [rising, partial curve] | 7.08 µM [rising, partial curve]
CC1CCC(=NNC(=O)Cc2cccn2C)CC1 (stereo unspecified) | – | 5.01 µM [rising, partial curve, poor fit]
O=[N+]([O-])c1ccc(-c2c(O)c3ccccc3c3nc4ccccc4nc23)cc1 | 22.4 µM [falling, partial curve, poor fit] | 11.2 µM [falling, partial curve]
c1ccc(N2CCN(c3ncnc4[nH]ncc34)CC2)cc1 | 10 µM [rising, single point] | –

One compound at a time (already shown):
Brc1ccc2[nH]c3c(N4CCc5ccccc5C4)ncnc3c2c1 reads AC50 [1]: 3.98 µM [rising, full curve, poor fit]
O=C(c1ccco1)N(CCC(c1ccccc1)c1ccco1)Cc1ccco1 (stereo unspecified) reads AC50 [1]: 35.5 µM [falling, partial curve, poor fit]
O=[N+]([O-])c1ccc(-c2c(O)c3ccccc3c3nc4ccccc4nc23)cc1 reads AC50 [1]: 22.4 µM [falling, partial curve, poor fit]; AC50 [2]: 11.2 µM [falling, partial curve]

Next structures.

SMILES | AC50 [1] | AC50 [2]
COc1cc(OC)c(NC(=O)NCc2ccc3c(c2)CCN3C(C)=O)cc1Cl | 3.16 µM [rising, partial curve] | 3.55 µM [rising, full curve]
Cc1cccc(N2CCN(C(=O)c3ccc4nc[nH]c4c3)CC2)c1C | 17.8 µM [rising, single point] | 10 µM [rising, single point]
CCOC(=O)c1cnn(-c2nc3sc4c(c3c(=O)[nH]2)CCCC4)c1N | 1.26 µM [rising, full curve] | –
CCCCCNC(=O)C1CCC(Cn2c(=O)c3sccc3n(CC(=O)N3CCCC3)c2=O)CC1 (stereo unspecified) | 0.00316 µM [falling, full curve, poor fit] | –
O=c1c2ccc([N+](=O)[O-])cc2ncn1CCOc1ccc(Cl)cc1 | 0.0891 µM [rising, full curve, poor fit] | 0.501 µM [rising, full curve]
CCCCOC(=O)Nc1ccccc1C(=O)N1CCCC1 | – | 35.5 µM [rising, single point]
COCCn1c(SCC(=O)Nc2ccc(Cl)c(S(=O)(=O)N(C)C)c2)nc2ccccc21 | 11.2 µM [rising, single point] | –
Cc1ccc(NC(=O)CSc2nnc(C3CCCCC3)n2N)cc1F | 17.8 µM [rising, single point] | 17.8 µM [rising, single point]
O=C(Nc1ccccc1)OC[C@H](CN1CCCCC1)OC(=O)Nc1ccccc1 | 5.62 µM [rising, partial curve, poor fit] | 12.6 µM [rising, single point]
Cc1ccc(NC(=O)c2cccc(OCc3c(C)noc3C)c2)cc1S(=O)(=O)Nc1ccccc1Cl | 20 µM [rising, partial curve] | 12.6 µM [rising, partial curve, poor fit]
CC(C)Oc1ccc(C(CC(=O)O)c2ccc(F)cc2)cc1 (stereo unspecified) | – | 0.0224 µM [rising, full curve, poor fit]
CC(C)CCn1nc(C(=O)Nc2nc3c(s2)CCCC3)c2ccccc2c1=O | 14.1 µM [rising, single point] | –
Cc1ccc(S(=O)(=O)N2CCC(=O)N(C(COCc3ccc(C(F)(F)F)cc3)C(C)C)CC2)cc1 (stereo unspecified) | 35.5 µM [rising, partial curve, poor fit] | 31.6 µM [rising, single point]
O=C(Nc1nccs1)c1ccc(COc2ccccc2Br)o1 | 28.2 µM [rising, single point] | –
O=C(CSc1n[nH]c(-c2ccccc2)n1)c1ccc(O)c(O)c1 | 25.1 µM [rising, single point] | 11.2 µM [rising, single point]
COc1ccc(C2=NN(C(=O)CSc3nnc(-c4ccccc4F)o3)C(c3ccco3)C2)cc1 (stereo unspecified) | 14.1 µM [rising, single point] | –
Cc1ccc2ncnc(NCCCCCC(=O)O)c2c1 | 0.0224 µM [falling, full curve] | –
O=C(C1CCCN(S(=O)(=O)c2ccccc2)C1)N1CCN(c2ncccn2)CC1 (stereo unspecified) | 35.5 µM [rising, single point] | –
Cc1ccc(C(=O)N/N=c2\sc3ccccc3n2C)cc1 | 0.0708 µM [rising, partial curve] | 0.0355 µM [rising, full curve, poor fit]
O=C(CCC1N=C2c3ccccc3N=C(SCc3ccc(F)cc3)N2C1=O)NCCc1ccccc1 (stereo unspecified) | 11.2 µM [falling, partial curve] | 12.6 µM [falling, partial curve]
CCOC(=O)C1CCN(c2cc(C)nc3ccc(OC)cc23)CC1 | – | 10 µM [rising, partial curve, poor fit]
Cc1ccc(NC(=O)CC2SC(=NCC3CCCO3)NC2=O)cc1Cl (stereo unspecified) | 0.398 µM [rising, full curve] | –
CN(Cc1c(F)cccc1Cl)c1ccc(S(=O)(=O)N2CCOCC2)cn1 | 7.08 µM [rising, partial curve] | 7.08 µM [rising, partial curve]
COc1cccc(OC)c1OCCNCC1COc2ccccc2O1 (stereo unspecified) | 5.62 µM [falling, single point] | 5.62 µM [falling, partial curve, poor fit]
CCOc1ccc2ccccc2c1CNc1nnnn1C | 12.6 µM [falling, partial curve] | –
Cc1ccc(S(=O)(=O)Nc2ccc(N3CCOCC3)cc2)cc1[N+](=O)[O-] | 2.51 µM [falling, partial curve, poor fit] | 0.00316 µM [falling, full curve, poor fit]
O=C1NCN(c2ccccc2)C12CCN(CCCC(c1ccc(F)cc1)c1ccc(F)cc1)CC2 | 1 µM [falling, partial curve] and 25.1 µM [falling, partial curve] | 1.12 µM [falling, partial curve] and 20 µM [falling, partial curve]
